Data reported in US20260048101A1, “GLP-1R ANTAGONISM TO IMPROVE NUTRITION FOLLOWING GASTROINTESTINAL SURGERY” (Amylyx Pharmaceuticals, Inc., priority 2023, published 2026).
At least one compound was matched to its structure with a doubt left.

What was measured:
[1] = system: GLP-1R knockout mice; conditions: GLP-1R knockout mice administered liraglutide; Sisley et al. (2014); cited from earlier work
[2] = system: Patient 2 (total gastrectomy, severe hypoglycemia events); assay: Patient 2 case history: prior pharmacotherapy; format: in vivo, human; conditions: Patient 2, before trial participation
From the text: The patient had been placed on a liquid diet for 6 weeks after surgery and had initially lost 20 lbs. but otherwise fared well in the immediate postoperative period. […] The meals caused pain, gastrointestinal symptoms, and frequent diarrhea (per patient report). The patient also complained of weakness, lethargy and general feeling of despondency. […] They began to experience severe hypoglycemia events, including multiple episodes of loss of consciousness with requirement for emergency medical assistance. […] The patient was referred for trial participation.

| Compound | weight loss [1] | effect on hypoglycemia [2] |
| --- | --- | --- |
| CCCCCCCCCCCCCCCC(=O)N[C@@H](CCC(=O)NCCCC[C@H](NC(=O)[C@H](C)NC(=O)[C@H](C)NC(=O)[C@H](CCC(N)=O)NC(=O)CNC(=O)[C@H](CCC(=O)O)NC(=O)[C@H](CC(C)C)NC(=O)[C@H](Cc1ccc(O)cc1)NC(=O)[C@H](CO)NC(=O)[C@H](CO)NC(=O)[C@@H](NC(=O)[C@H](CC(=O)O)NC(=O)[C@H](CO)NC(=O)[C@@H](NC(=O)[C@H](Cc1ccccc1)NC(=O)[C@@H](NC(=O)CNC(=O)[C@H](CCC(=O)O)NC(=O)[C@H](C)NC(=O)[C@@H](N)Cc1cnc[nH]1)[C@@H](C)O)[C@@H](C)O)C(C)C)C(=O)N[C@@H](CCC(=O)O)C(=O)N[C@@H](Cc1ccccc1)C(=O)N[C@H](C(=O)N[C@@H](C)C(=O)N[C@@H](Cc1c[nH]c2ccccc12)C(=O)N[C@@H](CC(C)C)C(=O)N[C@H](C(=O)N[C@@H](CCCNC(=N)N)C(=O)NCC(=O)N[C@@H](CCCNC(=N)N)C(=O)NCC(=O)O)C(C)C)[C@@H](C)CC)C(=O)O [liraglutide] | did not lose weight | – |
| C[C@H]1O[C@H](O[C@H]2[C@H](O)[C@@H](O)[C@@H](O[C@H]3[C@H](O)[C@@H](O)C(O)O[C@@H]3CO)O[C@@H]2CO)[C@H](O)[C@@H](O)[C@@H]1N[C@H]1C=C(CO)[C@@H](O)[C@H](O)[C@H]1O (some centres unmarked) [acarbose] | – | little improvement |
